# PubChem BioAssay AID743456, Peter MacCallum Cancer Centre – 2014
# Test: 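miRNA mimics altering how resistant colon cancer cells respond to vorinostat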 (primary screen)
# Cell system: human HCT116-VR colon cancer cells, a vorinostat-resistant HCT116 line
# Reagent: miRNA mimic
# Timing: about 3 days from transfection to readout; drug present for the last 24 h
# Treatment: vorinostat at 2.5 µM final for 24 h
# Read-out: 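Per-well live-cell protease fluorescence and caspase luminescence under 2.5 µM vorinostat for 24 h, scored as robust z-scores and against mock transfection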
# Scale: viability robust z-score: higher = more viable cells; caspase robust z-score: higher = more caspase activity, more apoptosis
# Active means: 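a mimic counts as active if it lands in a lowered-viability class or a caspase-activation class; wells with too few cells without drug are left out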
# The whole screen tested 878 reagents; this is a random part of them. In the full data, 27 (3.1%) were called active. 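27 mimics are marked active, unlike an earlier stated count of 24; the viability threshold is described inconsistently.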 Further read-outs or replicates are left out here. Not given: the amount of reagent.
miRNA,viability robust z-score,caspase robust z-score,viability hit class,caspase hit class,outcome
hsa-miR-551b,0.9,-0.7,no change,no change,inactive
hsa-miR-28-5p,-2.74,-0.23,no change,no change,inactive
hsa-miR-517b,0.56,1.43,no change,no change,inactive
hsa-miR-609,-0.97,1.19,no change,no change,inactive
hsa-miR-140-3p,0.02,-0.64,no change,no change,inactive
hsa-miR-92a,0.34,-0.12,no change,no change,inactive
hsa-miR-661,-2.38,4.95,no change,caspase activation,active
hsa-miR-101,0.32,-0.16,no change,no change,inactive
hsa-miR-491-3p,-2.84,-0.55,no change,no change,inactive
hsa-miR-585,-0.94,0.65,no change,no change,inactive
hsa-let-7g,0.32,-0.3,no change,no change,inactive
hsa-miR-1323,0.16,1.15,no change,no change,inactive
hsa-miR-26b,0.09,-0.92,no change,no change,inactive
hsa-miR-7,-1.28,-0.45,no change,no change,inactive
hsa-miR-526b,-0.3,1.34,no change,no change,inactive
hsa-miR-190,-0.22,-0.95,no change,no change,inactive
hsa-miR-424*,1.04,-0.63,no change,no change,inactive
hsa-miR-1237,0.25,1.31,no change,no change,inactive
hsa-miR-202,0.76,2.15,no change,no change,inactive
hsa-miR-16-2*,-0.25,-0.44,no change,no change,inactive
hsa-miR-640,0.46,-0.57,no change,no change,inactive
hsa-miR-15a*,0.01,2.9,no change,no change,inactive
hsa-miR-190b,0.45,-0.67,no change,no change,inactive
hsa-miR-518a-3p,-1.16,-0.47,no change,no change,inactive
hsa-miR-455-5p,-0.73,2.44,no change,no change,inactive
hsa-miR-18a*,0.02,2.79,no change,no change,inactive
hsa-miR-192,-2.28,1.05,no change,no change,inactive
hsa-miR-137,-1.7,-0.02,no change,no change,inactive
hsa-miR-1283,1.74,-0.24,no change,no change,inactive
hsa-miR-509-3p,-0.06,1.1,no change,no change,inactive
hsa-miR-940,-0.88,-0.04,no change,no change,inactive
hsa-miR-1911*,1.18,-0.42,no change,no change,inactive
hsa-miR-18a,0.38,1.22,no change,no change,inactive
hsa-miR-10a,-0.45,-1.04,no change,no change,inactive
hsa-miR-148b,1.65,0.52,no change,no change,inactive
hsa-miR-548o,1.05,-0.42,no change,no change,inactive
hsa-miR-369-5p,0.45,-0.6,no change,no change,inactive
hsa-miR-301a,0.73,-0.53,no change,no change,inactive
hsa-miR-15b*,-0.18,-0.61,no change,no change,inactive
hsa-miR-145*,-0.06,-0.92,no change,no change,inactive
hsa-miR-1182,0.23,-0.71,no change,no change,inactive
hsa-miR-642,0.2,-0.46,no change,no change,inactive
hsa-miR-1226*,1.04,-0.4,no change,no change,inactive
hsa-miR-876-3p,-2.16,0.91,no change,no change,inactive
hsa-miR-668,0.54,-0.5,no change,no change,inactive
hsa-miR-373*,1.36,0.59,no change,no change,inactive
hsa-miR-218,1.88,-0.43,no change,no change,inactive
hsa-miR-186*,0.7,-0.85,no change,no change,inactive
hsa-miR-26b*,-0.33,1.18,no change,no change,inactive
hsa-miR-376a*,-0.7,2.78,no change,no change,inactive

A few values from above.
Result of hsa-miR-548o in “caspase hit class”: no change
Result of hsa-miR-18a* in “caspase hit class”: no change
hsa-miR-28-5p, viability robust z-score: -2.74
